Reference: PubChem BioAssay AID504774 (Drosophila RNAi Screening Center, 2011)
The deposit covers about 23,000 reagents; shown is an unselected part of those that have a named target and a result. 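Values are quantile-normalised luminescence on an arbitrary scale; higher means more cells surviving MMS.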 A plus sign joins genes that one reagent is predicted to hit. Not all columns of the deposit are shown. No sequences are given here.

Purpose: 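Fly genes whose loss alters survival after alkylation damage to DNA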 (primary screen)
Cells: Drosophila Kc167 cells
Reagents: long dsRNA against Drosophila genes, about 0.25 µg dsRNA per well
Time to read-out: about 6 days: 3 days knock-down, then 3 days with or without MMS
Treatment: methyl methanesulphonate 0.004% (w/v) for 3 days after knock-down
Read-out: 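Viability in wells given MMS, read as ATP luminescence, normalised by quantiles plate by plate and averaged across replicates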
Scale: mean viability with MMS: higher = more surviving cells after MMS

{"predicted target": "ATPsynepsilonL (ATP synthase, epsilon subunit-like)", "dsRNA": "DRSC14548", "mean viability with MMS": 3.55e6}
{"predicted target": "ACOX1 (acyl-CoA oxidase 1)", "dsRNA": "DRSC05941", "mean viability with MMS": 3.50e6}
{"predicted target": "CG13978", "dsRNA": "DRSC14720", "mean viability with MMS": 3.53e6}
{"predicted target": "Ucp4B (Uncoupling protein 4B)", "dsRNA": "DRSC02665", "mean viability with MMS": 3.65e6}
{"predicted target": "DIP-gamma (Dpr-interacting protein gamma)", "dsRNA": "DRSC14873", "mean viability with MMS": 3.58e6}
{"predicted target": "Ugt301D1 (UDP-glycosyltransferase family 301 member D1)", "dsRNA": "DRSC02021", "mean viability with MMS": 3.24e6}
{"predicted target": "Cngl (Cyclic nucleotide-gated ion channel-like)", "dsRNA": "DRSC20318", "mean viability with MMS": 3.31e6}
{"predicted target": "Uck (Uridine-cytidine kinase)", "dsRNA": "DRSC13661", "mean viability with MMS": 3.45e6}
{"predicted target": "Uck (Uridine-cytidine kinase)", "dsRNA": "DRSC16028", "mean viability with MMS": 3.52e6}
{"predicted target": "Polr2E (RNA polymerase II, I and III subunit E)", "dsRNA": "DRSC06100", "mean viability with MMS": 2.66e6}
{"predicted target": "CG4338", "dsRNA": "DRSC15564", "mean viability with MMS": 3.41e6}
{"predicted target": "CCT1 (Chaperonin containing TCP1 subunit 1)", "dsRNA": "DRSC16877", "mean viability with MMS": 3.19e6}
{"predicted target": "CG15576", "dsRNA": "DRSC18064", "mean viability with MMS": 3.56e6}
{"predicted target": "Obp49a (Odorant-binding protein 49a)", "dsRNA": "DRSC22562", "mean viability with MMS": 3.72e6}
{"predicted target": "flr (flare)", "dsRNA": "DRSC09787", "mean viability with MMS": 3.38e6}
{"predicted target": "mud (mushroom body defect)", "dsRNA": "DRSC19019", "mean viability with MMS": 3.70e6}
{"predicted target": "Nmnat (Nicotinamide mononucleotide adenylyltransferase)", "dsRNA": "DRSC14644", "mean viability with MMS": 3.44e6}
{"predicted target": "CG3065", "dsRNA": "DRSC04333", "mean viability with MMS": 3.32e6}
{"predicted target": "CG3594", "dsRNA": "DRSC04393", "mean viability with MMS": 2.84e6}
{"predicted target": "CG3594", "dsRNA": "DRSC21959", "mean viability with MMS": 3.44e6}

6 of these entries, reformatted:
{"predicted target":"ACOX1 (acyl-CoA oxidase 1)","dsRNA":"DRSC05941","mean viability with MMS":3.50e6}
{"predicted target":"CG13978","dsRNA":"DRSC14720","mean viability with MMS":3.53e6}
{"predicted target":"Ucp4B (Uncoupling protein 4B)","dsRNA":"DRSC02665","mean viability with MMS":3.65e6}
{"predicted target":"DIP-gamma (Dpr-interacting protein gamma)","dsRNA":"DRSC14873","mean viability with MMS":3.58e6}
{"predicted target":"Ugt301D1 (UDP-glycosyltransferase family 301 member D1)","dsRNA":"DRSC02021","mean viability with MMS":3.24e6}
{"predicted target":"Cngl (Cyclic nucleotide-gated ion channel-like)","dsRNA":"DRSC20318","mean viability with MMS":3.31e6}

The list goes on:
{"predicted target": "Cftr (CF transmembrane conductance regulator)", "dsRNA": "DRSC15872", "mean viability with MMS": 3.64e6}
{"predicted target": "CG3491", "dsRNA": "DRSC01934", "mean viability with MMS": 3.53e6}
{"predicted target": "CG13398", "dsRNA": "DRSC02268", "mean viability with MMS": 3.61e6}
{"predicted target": "CG17193", "dsRNA": "DRSC15187", "mean viability with MMS": 3.61e6}
{"predicted target": "CG18557", "dsRNA": "DRSC00524", "mean viability with MMS": 3.38e6}
{"predicted target": "Xrcc2 (X-ray repair cross complementing 2)", "dsRNA": "DRSC19984", "mean viability with MMS": 3.31e6}
{"predicted target": "CG10332 (retired record) + IM18", "dsRNA": "DRSC04064", "mean viability with MMS": 3.70e6}
{"predicted target": "CkIIbeta2 (Casein kinase II beta2 subunit)", "dsRNA": "DRSC07361", "mean viability with MMS": 3.51e6}
{"predicted target": "Ccs (Copper chaperone for superoxide dismutase)", "dsRNA": "DRSC06692", "mean viability with MMS": 3.63e6}
{"predicted target": "Cirl (Calcium-independent receptor for alpha-latrotoxin)", "dsRNA": "DRSC21942", "mean viability with MMS": 2.86e6}
{"predicted target": "Cirl (Calcium-independent receptor for alpha-latrotoxin)", "dsRNA": "DRSC23235", "mean viability with MMS": 3.70e6}
{"predicted target": "Cyp6a14 (retired record)", "dsRNA": "DRSC07376", "mean viability with MMS": 3.49e6}
{"predicted target": "CG3706", "dsRNA": "DRSC18649", "mean viability with MMS": 3.56e6}
{"predicted target": "Mdh1 (retired record)", "dsRNA": "DRSC02846", "mean viability with MMS": 3.70e6}
{"predicted target": "Usp7 (Ubiquitin-specific protease 7)", "dsRNA": "DRSC18909", "mean viability with MMS": 3.79e6}
{"predicted target": "Usp7 (Ubiquitin-specific protease 7)", "dsRNA": "DRSC19604", "mean viability with MMS": 3.57e6}
